Test results from paper PMC9281127.
Numbering of substitutions follows the chain as printed. Names may count otherwise. No constants are given. Whether binding was seen depends on the method and setting. In cells and extracts the contact can be indirect. Some entries that bind do so weakly or less than the wild type. Tags and fused reporters may be left off the sequences shown.

The chains behind the UniProt entries cited, without tags or fusion partners. Residues count along the entry.
UniProt Q9NZQ7, residues 19-290: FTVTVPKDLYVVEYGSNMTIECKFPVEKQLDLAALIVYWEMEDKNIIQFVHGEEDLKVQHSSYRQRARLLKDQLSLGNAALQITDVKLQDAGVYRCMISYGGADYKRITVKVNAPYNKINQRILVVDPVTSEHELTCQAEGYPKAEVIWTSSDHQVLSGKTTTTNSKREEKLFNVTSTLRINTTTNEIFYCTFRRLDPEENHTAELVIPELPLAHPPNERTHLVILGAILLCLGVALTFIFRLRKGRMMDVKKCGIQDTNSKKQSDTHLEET

B1: Flag-tagged ZG16 (zymogen granule protein 16) (protein, UniProt O60844 17-167)
chain: NAIQARSSSYSGEYGGGGGKRFSHSGNQLDGPITALRVRVNTYYIVGLQVRYGKVWSDYVGGRNGDLEEIFLHPGESVIQVSGKYKWYLKKLVFVTDKGRYLSFGKDSGTSFNAVPLHPNTVLRFISGRSGSLIDAIGLHWDVYPSSCSRC
B2: Flag-tagged ZG16-D151A (protein, UniProt O60844 17-167)
chain: B1 chain with D135A

Target: His-tagged PD-L1 (programmed death-ligand 1) (UniProt Q9NZQ7)
Assay: co-IP; plasmids for Flag-tagged ZG16 and His-tagged PD-L1 (wild type or mutants) co-transfected into SW480 or HCT116 cells; single vectors expressing each tag as negative controls

Binder	binding
B1	binds
B2	binds
